Results as given in patent US20200163896A1, “FLOATABLE PHARMACEUTICAL MICROCAPSULE COMPOSITION” (Nanyang Technological University, priority 2017, published 2020).
At least one structure is not confirmed: it was looked up by name or label, or the drawing left a doubt. Some compounds share one wording; it may come from a single statement.

experiment: In vitro drug release in SGF for 48 h; format: physicochemical; conditions: 37° C., casein 0-5% (w/v)
Protocol: In vitro release study was conducted in SGF for 48 h. In some experiments, the study was conducted in SGF, followed by SIF, where the total duration in SGF and SIF is 48 h. Each microcapsule sample (20 mg) was added to a bottle containing SGF or SIF medium (20 mL). Both SGF and SIF bottles were placed in a 37° C. rotating incubator. At different time points, half of the medium (10 mL) in each bottle was extracted and replaced with 10 mL new medium. The time points included intervals of hours within a 48-hour period. The drug content in the extracted medium was analyzed using RP-HPLC with the procedure mentioned in Example 1 for determining encapsulation efficiency.

| Compound | Release rate of drug from microcapsules versus casein concentration |
| --- | --- |
| CC(C)OC(=O)C(C)(C)Oc1ccc(C(=O)c2ccc(Cl)cc2)cc1 [FEN, fenofibrate] | increased with higher concentration of casein |
| CO[C@H]1/C=C/O[C@@]2(C)Oc3c(C)c(O)c4c(O)c(c(/C=N/N5CCN(C)CC5)c(O)c4c3C2=O)NC(=O)/C(C)=C\C=C\[C@H](C)[C@H](O)[C@@H](C)[C@@H](O)[C@@H](C)[C@H](OC(C)=O)[C@@H]1C [RIF, rifampicin] | increased with higher concentration of casein |
| CCN(CC)C(=O)/C(C#N)=C/c1cc(O)c(O)c([N+](=O)[O-])c1 [ENT, entacapone] | increased with higher concentration of casein |
